The list shows a part of the results.
Assays:
Test in all cases: log2 fold change, soluble protein after heating vs DMSO (PISA); higher = thermal stabilisation; K562 cells, 10 uM, 30 min; active = over 0.2 and 3.5 SD of the protein, either way, in both replicates (recomputed)
[1] = compound: Cc1ccc(NC(=O)c2ccc(CN3CC[C@H](N(C)C)C3)c(C(F)(F)F)c2)cc1Nc1nccc(-c2cncnc2)n1 [bafetinib]
Outline: (§1)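 For each measurement, 10 μM compound was applied for 30 min to K562 cells at 2×10^6 cells/mL. Aliquots were heated for 3 min across 48°C-58°C, pooled, and extracted in PBS with 0.5% NP-40 at 4°C; the supernatant after 21,000xg for 90 min was soluble protein. This was quantified by TMTpro 16plex LC-MS/MS with channel sums equalised, and thermal stability was reported relative to control samples from duplicates, on a log2 fold-change scale.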

Chains of the proteins cited; added tags and fusions are not shown. Lines headed by an entry give the natural chain unless they say otherwise; changes in a name come on top.
UniProt O60671: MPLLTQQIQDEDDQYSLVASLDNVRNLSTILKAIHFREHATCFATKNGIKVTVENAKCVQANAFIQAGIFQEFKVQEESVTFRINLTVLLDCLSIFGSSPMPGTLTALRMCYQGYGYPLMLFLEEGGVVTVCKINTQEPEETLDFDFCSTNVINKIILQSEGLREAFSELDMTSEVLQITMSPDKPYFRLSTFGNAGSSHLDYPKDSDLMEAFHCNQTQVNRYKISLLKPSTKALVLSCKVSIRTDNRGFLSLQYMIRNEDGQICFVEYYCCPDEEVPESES
UniProt Q15042: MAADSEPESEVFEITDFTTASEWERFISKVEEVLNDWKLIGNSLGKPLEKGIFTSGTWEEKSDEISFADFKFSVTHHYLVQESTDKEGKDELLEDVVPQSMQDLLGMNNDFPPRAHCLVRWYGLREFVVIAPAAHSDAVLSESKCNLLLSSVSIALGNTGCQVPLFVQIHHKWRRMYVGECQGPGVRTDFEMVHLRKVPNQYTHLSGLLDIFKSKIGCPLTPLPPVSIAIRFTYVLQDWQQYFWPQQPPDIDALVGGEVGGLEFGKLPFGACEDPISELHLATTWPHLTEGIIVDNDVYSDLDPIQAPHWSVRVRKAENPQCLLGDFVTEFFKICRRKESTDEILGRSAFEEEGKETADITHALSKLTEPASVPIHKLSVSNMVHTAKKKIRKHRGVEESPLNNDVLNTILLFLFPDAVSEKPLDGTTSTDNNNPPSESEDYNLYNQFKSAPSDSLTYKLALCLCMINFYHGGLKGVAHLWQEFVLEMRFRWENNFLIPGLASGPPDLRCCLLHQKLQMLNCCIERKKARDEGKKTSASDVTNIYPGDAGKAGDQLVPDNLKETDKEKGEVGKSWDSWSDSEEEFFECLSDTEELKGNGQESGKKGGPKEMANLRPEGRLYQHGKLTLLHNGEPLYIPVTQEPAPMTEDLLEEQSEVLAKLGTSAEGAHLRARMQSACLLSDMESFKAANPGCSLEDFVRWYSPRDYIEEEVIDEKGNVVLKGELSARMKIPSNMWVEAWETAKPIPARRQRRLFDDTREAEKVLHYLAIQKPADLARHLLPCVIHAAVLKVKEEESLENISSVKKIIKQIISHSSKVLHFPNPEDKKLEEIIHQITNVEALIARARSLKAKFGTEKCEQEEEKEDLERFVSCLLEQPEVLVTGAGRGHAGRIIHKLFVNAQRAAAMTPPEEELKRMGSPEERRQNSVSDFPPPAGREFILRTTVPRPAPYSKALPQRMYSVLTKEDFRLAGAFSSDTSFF
UniProt P11234: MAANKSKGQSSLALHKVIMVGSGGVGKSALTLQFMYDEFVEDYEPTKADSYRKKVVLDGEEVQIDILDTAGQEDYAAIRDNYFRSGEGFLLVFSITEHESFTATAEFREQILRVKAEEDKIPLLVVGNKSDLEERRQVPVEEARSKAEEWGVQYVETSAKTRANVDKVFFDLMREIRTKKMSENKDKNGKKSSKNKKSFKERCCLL
UniProt P49792, whole entry, looked up: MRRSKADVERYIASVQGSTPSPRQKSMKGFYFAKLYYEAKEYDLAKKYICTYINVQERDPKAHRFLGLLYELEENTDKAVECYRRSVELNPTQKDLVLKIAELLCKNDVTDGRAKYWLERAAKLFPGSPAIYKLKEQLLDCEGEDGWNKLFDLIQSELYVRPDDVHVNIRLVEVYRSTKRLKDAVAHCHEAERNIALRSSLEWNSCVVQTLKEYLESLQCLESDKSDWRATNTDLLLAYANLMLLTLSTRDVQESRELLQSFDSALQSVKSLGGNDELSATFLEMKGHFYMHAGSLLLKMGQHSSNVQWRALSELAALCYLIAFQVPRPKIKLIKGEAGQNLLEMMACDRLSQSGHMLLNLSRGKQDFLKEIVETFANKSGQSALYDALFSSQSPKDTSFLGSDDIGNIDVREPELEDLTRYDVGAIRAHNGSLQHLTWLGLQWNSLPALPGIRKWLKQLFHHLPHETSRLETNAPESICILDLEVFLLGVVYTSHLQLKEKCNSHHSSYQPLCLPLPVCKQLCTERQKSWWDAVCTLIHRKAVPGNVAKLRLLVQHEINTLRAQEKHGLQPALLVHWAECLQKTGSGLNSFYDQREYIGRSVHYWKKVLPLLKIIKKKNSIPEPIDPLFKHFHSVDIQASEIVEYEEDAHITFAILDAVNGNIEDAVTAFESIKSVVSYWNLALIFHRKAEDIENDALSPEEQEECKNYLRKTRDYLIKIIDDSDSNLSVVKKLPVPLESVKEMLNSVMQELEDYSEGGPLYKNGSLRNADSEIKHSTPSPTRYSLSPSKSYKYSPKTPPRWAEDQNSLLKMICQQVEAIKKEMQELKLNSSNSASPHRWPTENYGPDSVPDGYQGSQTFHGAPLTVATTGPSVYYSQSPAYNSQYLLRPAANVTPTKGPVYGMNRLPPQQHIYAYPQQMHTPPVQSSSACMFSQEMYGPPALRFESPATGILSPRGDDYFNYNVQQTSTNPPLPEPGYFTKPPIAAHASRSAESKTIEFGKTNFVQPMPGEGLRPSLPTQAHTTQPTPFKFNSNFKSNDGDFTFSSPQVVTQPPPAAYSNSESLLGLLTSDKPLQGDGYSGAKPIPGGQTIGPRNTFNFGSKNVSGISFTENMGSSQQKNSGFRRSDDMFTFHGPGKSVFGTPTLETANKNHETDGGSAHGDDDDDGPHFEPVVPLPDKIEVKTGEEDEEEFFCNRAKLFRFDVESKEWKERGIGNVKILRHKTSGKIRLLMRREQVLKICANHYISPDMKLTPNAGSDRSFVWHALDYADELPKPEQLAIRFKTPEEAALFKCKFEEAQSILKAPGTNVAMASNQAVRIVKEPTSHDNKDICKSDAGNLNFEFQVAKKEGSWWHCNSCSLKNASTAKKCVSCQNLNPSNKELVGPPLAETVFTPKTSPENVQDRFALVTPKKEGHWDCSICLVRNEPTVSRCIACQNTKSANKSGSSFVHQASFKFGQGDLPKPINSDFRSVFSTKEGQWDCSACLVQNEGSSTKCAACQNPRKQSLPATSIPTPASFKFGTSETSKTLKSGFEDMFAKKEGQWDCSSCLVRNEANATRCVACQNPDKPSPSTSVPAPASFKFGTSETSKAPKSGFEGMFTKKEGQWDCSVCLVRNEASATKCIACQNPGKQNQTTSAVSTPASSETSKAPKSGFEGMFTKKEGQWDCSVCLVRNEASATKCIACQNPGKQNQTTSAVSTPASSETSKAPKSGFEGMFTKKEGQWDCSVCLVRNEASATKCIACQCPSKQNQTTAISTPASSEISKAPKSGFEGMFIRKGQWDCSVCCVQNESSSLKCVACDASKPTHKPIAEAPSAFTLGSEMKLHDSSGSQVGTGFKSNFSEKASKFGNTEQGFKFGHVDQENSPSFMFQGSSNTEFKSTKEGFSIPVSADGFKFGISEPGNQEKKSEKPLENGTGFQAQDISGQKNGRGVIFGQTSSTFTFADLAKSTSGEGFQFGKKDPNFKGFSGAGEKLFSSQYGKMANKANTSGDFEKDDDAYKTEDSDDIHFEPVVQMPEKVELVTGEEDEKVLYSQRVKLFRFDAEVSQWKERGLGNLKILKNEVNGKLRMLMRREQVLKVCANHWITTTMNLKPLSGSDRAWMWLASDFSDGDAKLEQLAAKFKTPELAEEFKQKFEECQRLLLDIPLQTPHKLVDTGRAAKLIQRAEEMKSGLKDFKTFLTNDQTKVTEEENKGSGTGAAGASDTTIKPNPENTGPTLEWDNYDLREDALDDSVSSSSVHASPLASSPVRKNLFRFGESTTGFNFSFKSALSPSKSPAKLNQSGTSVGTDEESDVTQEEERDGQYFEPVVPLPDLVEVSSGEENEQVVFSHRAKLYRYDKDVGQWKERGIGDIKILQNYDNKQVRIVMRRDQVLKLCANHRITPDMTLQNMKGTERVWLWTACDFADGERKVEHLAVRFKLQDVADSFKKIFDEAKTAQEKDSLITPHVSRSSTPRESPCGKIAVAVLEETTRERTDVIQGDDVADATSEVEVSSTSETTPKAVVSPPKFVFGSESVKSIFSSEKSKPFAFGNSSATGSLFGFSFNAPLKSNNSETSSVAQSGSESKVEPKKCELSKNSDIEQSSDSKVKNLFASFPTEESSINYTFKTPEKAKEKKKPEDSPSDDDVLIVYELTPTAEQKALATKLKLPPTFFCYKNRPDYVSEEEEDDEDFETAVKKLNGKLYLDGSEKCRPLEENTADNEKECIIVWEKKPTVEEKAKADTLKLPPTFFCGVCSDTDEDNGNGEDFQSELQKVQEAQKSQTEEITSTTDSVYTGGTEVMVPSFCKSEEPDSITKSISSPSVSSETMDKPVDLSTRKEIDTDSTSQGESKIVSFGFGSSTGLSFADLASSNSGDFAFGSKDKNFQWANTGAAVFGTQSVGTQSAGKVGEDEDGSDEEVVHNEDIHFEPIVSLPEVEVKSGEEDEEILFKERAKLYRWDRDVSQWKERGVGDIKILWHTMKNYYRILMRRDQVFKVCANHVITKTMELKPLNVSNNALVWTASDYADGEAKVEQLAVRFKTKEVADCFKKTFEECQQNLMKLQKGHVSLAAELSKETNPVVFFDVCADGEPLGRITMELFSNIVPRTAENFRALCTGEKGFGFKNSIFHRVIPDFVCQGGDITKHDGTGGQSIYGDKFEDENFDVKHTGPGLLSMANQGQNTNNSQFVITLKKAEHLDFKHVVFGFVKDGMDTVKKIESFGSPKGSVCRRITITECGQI
UniProt P62820, whole entry, looked up: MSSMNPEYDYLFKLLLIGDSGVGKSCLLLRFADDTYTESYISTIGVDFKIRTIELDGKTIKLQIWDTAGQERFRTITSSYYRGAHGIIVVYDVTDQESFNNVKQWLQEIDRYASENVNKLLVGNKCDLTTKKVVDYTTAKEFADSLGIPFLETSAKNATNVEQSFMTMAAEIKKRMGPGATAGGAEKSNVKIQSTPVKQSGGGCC
UniProt P61006: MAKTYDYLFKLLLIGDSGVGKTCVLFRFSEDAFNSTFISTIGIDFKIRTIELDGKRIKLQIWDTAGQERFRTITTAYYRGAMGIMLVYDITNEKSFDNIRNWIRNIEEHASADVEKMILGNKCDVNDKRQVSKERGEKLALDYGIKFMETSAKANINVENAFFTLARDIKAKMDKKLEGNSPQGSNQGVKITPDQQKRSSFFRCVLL
UniProt Q96B01: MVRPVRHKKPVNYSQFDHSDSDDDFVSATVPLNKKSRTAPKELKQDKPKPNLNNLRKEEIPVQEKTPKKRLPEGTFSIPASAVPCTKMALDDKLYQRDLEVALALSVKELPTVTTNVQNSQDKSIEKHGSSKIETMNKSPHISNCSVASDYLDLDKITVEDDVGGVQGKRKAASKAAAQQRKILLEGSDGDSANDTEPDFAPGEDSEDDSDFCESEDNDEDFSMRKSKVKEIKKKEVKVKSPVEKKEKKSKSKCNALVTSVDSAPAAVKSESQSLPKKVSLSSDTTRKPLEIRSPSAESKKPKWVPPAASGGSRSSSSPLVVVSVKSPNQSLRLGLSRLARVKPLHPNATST
UniProt P49756, whole entry, looked up: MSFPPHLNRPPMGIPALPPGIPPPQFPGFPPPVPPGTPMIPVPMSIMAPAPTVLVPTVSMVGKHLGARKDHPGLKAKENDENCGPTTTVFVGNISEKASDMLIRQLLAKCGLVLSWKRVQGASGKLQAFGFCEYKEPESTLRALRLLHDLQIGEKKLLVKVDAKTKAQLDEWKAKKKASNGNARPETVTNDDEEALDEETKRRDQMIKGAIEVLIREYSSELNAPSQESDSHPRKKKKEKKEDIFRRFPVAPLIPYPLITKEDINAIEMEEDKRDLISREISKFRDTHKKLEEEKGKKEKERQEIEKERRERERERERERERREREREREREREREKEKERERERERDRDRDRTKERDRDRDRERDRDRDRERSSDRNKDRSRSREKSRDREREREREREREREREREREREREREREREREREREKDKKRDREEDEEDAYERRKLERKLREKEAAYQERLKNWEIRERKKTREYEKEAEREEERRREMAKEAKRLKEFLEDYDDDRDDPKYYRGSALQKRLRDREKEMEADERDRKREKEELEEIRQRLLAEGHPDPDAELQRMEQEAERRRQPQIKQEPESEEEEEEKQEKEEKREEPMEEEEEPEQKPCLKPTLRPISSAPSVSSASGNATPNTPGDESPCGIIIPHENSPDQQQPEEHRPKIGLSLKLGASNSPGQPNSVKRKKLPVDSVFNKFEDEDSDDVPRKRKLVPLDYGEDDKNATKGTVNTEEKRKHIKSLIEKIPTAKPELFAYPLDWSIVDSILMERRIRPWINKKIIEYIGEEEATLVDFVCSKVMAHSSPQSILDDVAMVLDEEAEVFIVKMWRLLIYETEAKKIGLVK
UniProt Q13637: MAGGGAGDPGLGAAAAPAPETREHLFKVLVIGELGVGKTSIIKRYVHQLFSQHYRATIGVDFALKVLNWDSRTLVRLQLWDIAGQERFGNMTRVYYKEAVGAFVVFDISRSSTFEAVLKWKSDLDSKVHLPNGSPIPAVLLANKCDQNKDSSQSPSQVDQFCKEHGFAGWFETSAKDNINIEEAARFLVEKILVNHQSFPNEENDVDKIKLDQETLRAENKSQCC

[2] = compound: Cc1cccc(CC(=O)N2CCc3c2ccc(-c2cn(C)c4ncnc(N)c24)c3F)n1
Outline: as §1

[3] = compound: Cc1cn(-c2cc(NC(=O)c3ccc(C)c(Nc4nccc(-c5cccnc5)n4)c3)cc(C(F)(F)F)c2)cn1 [nilotinib]
Outline: as §1

[4] = compound: Cc1nc(Nc2n[nH]c3c2CN(C(=O)N[C@H](CN(C)C)c2ccccc2)C3(C)C)c2sccc2n1
Outline: as §1

[5] = compound: Cc1nc(Nc2ncc(C(=O)Nc3c(C)cccc3Cl)s2)cc(N2CCN(CCO)CC2)n1 [dasatinib]
Outline: as §1

[6] = compound: Cc1ncc(-c2ccnc(Nc3ccc(S(C)(=O)=O)cc3)n2)n1C(C)C
Outline: as §1

[7] = compound: Cn1cc(-c2ccc3c(c2)CCN3C(=O)Cc2cccc(C(F)(F)F)c2)c2c(N)ncnc21
Outline: as §1

[8] = compound: Cn1cc(-c2ccc3nnc(C(F)(F)c4ccc5ncccc5c4)n3n2)cn1
Outline: as §1

[9] = compound: Cn1cncc1[C@@](N)(c1ccc(Cl)cc1)c1ccc2c(c1)c(-c1cccc(Cl)c1)cc(=O)n2C [tipifarnib]
Outline: as §1

[10] = compound: FC(F)(F)c1ccc(/C=C/c2nc(COc3ccc(CCCCn4ccnn4)cc3)co2)cc1 [mubritinib]
Outline: as §1

[11] = compound: NC(=O)Nc1cc(-c2cccc(F)c2)sc1C(=O)N[C@H]1CCCNC1
Outline: as §1

[12] = compound: NC(=O)c1cnc(N[C@@H]2CCCC[C@@H]2N)nc1Nc1cccc(-n2nccn2)c1
Outline: as §1

[13] = compound: NC1(c2ccc(-c3nc4ccn5c(=O)[nH]nc5c4cc3-c3ccccc3)cc2)CCC1
Outline: as §1

[14] = compound: NCC(=O)Nc1ccc(-n2nc(C(F)(F)F)cc2-c2ccc3c(ccc4ccccc43)c2)cc1
Outline: as §1

[15] = compound: Nc1ccccc1NC(=O)c1ccc(CNC(=O)OCc2cccnc2)cc1 [entinostat]
Outline: as §1

[16] = compound: O=C(CCCCCCC(=O)Nc1ccccc1)NO [vorinostat]
Outline: as §1

[17] = compound: O=C(CCCCCCNC(=O)c1cnc(N(c2ccccc2)c2ccccc2Cl)nc1)NO [citarinostat]
Outline: as §1

[18] = compound: O=C(O)c1ccc2c(c1)nc(Nc1cccc(Cl)c1)c1ccncc12 [silmitasertib]
Outline: as §1

[19] = compound: O=C1NC(=O)C(c2cnc3ccccn23)=C1c1cn2c3c(cc(F)cc13)CN(C(=O)N1CCCCC1)CC2
Outline: as §1

[20] = compound: c1cc(OCCN2CCCCC2)cc(-c2n[nH]c3ccc(-c4nnc[nH]4)cc23)c1
Outline: as §1

Measured: log2 fold change

RAD1 (UniProt O60671)
inactive: [1] -0.015 | [2] -0.024 | [3] -0.066 | [4] -0.086 | [5] 0.021 | [6] 0.009 | [7] 0.007 | [8] 0.051 | [9] -0.017 | [10] 0.059 | [11] 0.004 | [12] -0.06 | [13] -0.083 | [14] 0.047 | [15] 0.045 | [16] 0.06 | [17] 0 | [18] -0.002 | [19] -0.116 | [20] -0.085

RAD23B (UniProt P54727)
inactive: [1] -0.063 | [2] -0.043 | [3] 0.012 | [4] -0.006 | [5] 0.055 | [6] 0.009 | [7] 0.003 | [8] 0.013 | [9] 0.026 | [10] 0.045 | [11] 0.015 | [12] 0.001 | [13] 0.014 | [14] 0.003 | [15] -0.018 | [16] -0.031 | [17] -0.02 | [18] -0.002 | [19] -0.018 | [20] -0.01

RAB11B (UniProt Q15907)
inactive: [1] -0.09 | [2] -0.054 | [3] 0.012 | [4] -0.009 | [5] 0.09 | [6] -0.036 | [7] -0.028 | [8] 0.033 | [9] 0.102 | [10] 0.033 | [11] -0.013 | [12] 0.02 | [13] -0.017 | [14] 0.013 | [15] -0.024 | [16] -0.061 | [17] 0.024 | [18] -0.001 | [19] -0.029 | [20] -0.017

RAP2A (UniProt P10114)
inactive: [1] 0.016 | [2] -0.156 | [3] 0.042 | [4] -0.005 | [5] 0.078 | [6] -0.006 | [7] 0.021 | [8] -0.004 | [9] 0.032 | [10] 0.051 | [11] -0.147 | [12] 0.008 | [13] 0.028 | [14] -0.063 | [15] -0.085 | [16] 0.104 | [17] -0.041 | [18] -0.057 | [19] -0.078 | [20] -0.092

RAB3GAP1 (UniProt Q15042)
inactive: [1] 0.026 | [2] -0.051 | [3] -0.064 | [4] -0.083 | [5] -0.015 | [6] 0.03 | [7] -0.093 | [8] -0.052 | [9] -0.069 | [10] -0.077 | [11] -0.055 | [12] -0.093 | [13] -0.096 | [14] -0.091 | [15] 0.015 | [16] 0.027 | [17] 0.074 | [18] 0.118 | [19] 0.125 | [20] -0.055

RALB isoform 2 (UniProt P11234)
inactive: [1] -0.005 | [2] -0.122 | [3] 0.043 | [4] -0.003 | [5] 0.013 | [6] 0.019 | [7] 0.019 | [8] -0.029 | [9] -0.001 | [10] 0.006 | [11] -0.053 | [12] 0.012 | [13] 0.051 | [14] 0.021 | [15] -0.039 | [16] -0.117 | [17] 0.039 | [18] -0.058 | [19] -0.04 | [20] -0.016

RANBP2 (UniProt P49792)
inactive: [1] -0.092 | [2] 0.197 | [3] -0.05 | [4] 0.087 | [5] -0.011 | [6] -0.043 | [7] -0.047 | [8] -0.051 | [9] -0.036 | [10] -0.073 | [11] 0.063 | [12] -0.05 | [13] 0.01 | [14] 0.005 | [15] 0.009 | [16] -0.034 | [17] -0.037 | [18] 0.001 | [19] -0.049 | [20] 0.019

RAB1A (UniProt P62820)
inactive: [1] -0.024 | [2] -0.068 | [3] 0.041 | [4] -0.008 | [5] 0.039 | [6] 0.003 | [7] -0.005 | [8] -0.001 | [9] 0.025 | [10] 0.013 | [11] 0.026 | [12] 0.012 | [13] 0.011 | [14] 0.028 | [15] 0 | [16] -0.045 | [17] -0.028 | [18] -0.031 | [19] -0.024 | [20] -0.023

RARS2 (UniProt Q5T160)
inactive: [1] -0.148 | [2] 0.104 | [3] -0.039 | [4] 0.019 | [5] -0.023 | [6] -0.006 | [7] 0.061 | [8] 0.012 | [9] -0.008 | [10] 0.075 | [11] 0.042 | [12] -0.035 | [13] -0.182 | [14] -0.043 | [15] 0.03 | [16] 0.029 | [17] 0.048 | [18] 0.006 | [19] -0.022 | [20] -0.053

RAB8A isoform 2 (UniProt P61006)
inactive: [1] -0.025 | [2] -0.039 | [3] -0.028 | [4] 0.012 | [5] 0.028 | [6] -0.012 | [7] -0.025 | [8] -0.001 | [9] 0.017 | [10] -0.011 | [11] -0.019 | [12] 0.026 | [13] -0.057 | [14] 0.023 | [15] -0.04 | [16] -0.087 | [17] 0.008 | [18] 0.008 | [19] -0.016 | [20] -0.045

RAD51AP1 (UniProt Q96B01)
inactive: [1] -0.028 | [2] -0.004 | [3] -0.005 | [4] 0.069 | [5] 0.022 | [6] -0.113 | [7] 0.029 | [8] -0.032 | [9] 0.068 | [10] 0.039 | [11] 0.035 | [12] -0.03 | [13] -0.036 | [14] 0.016 | [15] 0.063 | [16] -0.002 | [17] 0.116 | [18] 0.026 | [19] -0.045 | [20] -0.046

RBM25 (UniProt P49756)
inactive: [1] -0.067 | [2] -0.066 | [3] -0.012 | [4] -0.03 | [5] -0.049 | [6] -0.129 | [7] -0.044 | [8] -0.096 | [9] 0.068 | [10] 0.049 | [11] 0 | [12] 0.007 | [13] -0.058 | [14] -0.025 | [15] 0.031 | [16] 0.067 | [17] 0.015 | [18] 0.019 | [19] 0.005 | [20] -0.053

Reprinted from the listing (2 entries):
RAB8A isoform 2 (UniProt P61006)
inactive: [1] -0.025 | [2] -0.039 | [3] -0.028 | [4] 0.012 | [5] 0.028 | [6] -0.012 | [7] -0.025 | [8] -0.001 | [9] 0.017 | [10] -0.011 | [11] -0.019 | [12] 0.026 | [13] -0.057 | [14] 0.023 | [15] -0.04 | [16] -0.087 | [17] 0.008 | [18] 0.008 | [19] -0.016 | [20] -0.045

RAD51AP1 (UniProt Q96B01)
inactive: [1] -0.028 | [2] -0.004 | [3] -0.005 | [4] 0.069 | [5] 0.022 | [6] -0.113 | [7] 0.029 | [8] -0.032 | [9] 0.068 | [10] 0.039 | [11] 0.035 | [12] -0.03 | [13] -0.036 | [14] 0.016 | [15] 0.063 | [16] -0.002 | [17] 0.116 | [18] 0.026 | [19] -0.045 | [20] -0.046

The listing continues.

RAB4A (UniProt P20338)
inactive: [1] -0.042 | [2] -0.042 | [3] 0.048 | [4] -0.002 | [5] 0.031 | [6] -0.001 | [7] 0.043 | [8] 0.031 | [9] -0.105 | [10] 0.02 | [11] -0.039 | [12] -0.037 | [13] -0.025 | [14] 0.032 | [15] -0.065 | [16] -0.021 | [17] 0.029 | [18] -0.025 | [19] -0.009 | [20] -0.069

RAB3A (UniProt P20336)
inactive: [1] -0.091 | [2] -0.072 | [3] 0.079 | [4] 0.045 | [5] 0.039 | [6] 0.017 | [7] 0.009 | [8] -0.028 | [9] -0.02 | [10] 0.012 | [11] -0.05 | [12] 0.03 | [13] 0.165 | [14] -0.057 | [15] -0.017 | [16] 0.03 | [17] 0.023 | [18] 0.087 | [19] -0.258 | [20] 0.017

RAB24 (UniProt Q969Q5)
inactive: [1] -0.047 | [2] -0.101 | [3] 0.008 | [4] 0.026 | [5] 0.037 | [6] -0.015 | [7] 0.009 | [8] -0.008 | [9] 0.001 | [10] 0.003 | [11] 0.036 | [12] 0.025 | [13] -0.018 | [14] -0.014 | [15] 0.003 | [16] -0.035 | [17] -0.003 | [18] -0.015 | [19] -0.031 | [20] 0.06

RAB32 (UniProt Q13637)
inactive: [1] 0.096 | [2] 0.023 | [3] -0.088 | [4] -0.059 | [5] 0.106 | [6] -0.034 | [7] 0.07 | [8] 0.017 | [9] -0.11 | [10] 0.081 | [11] 0.034 | [12] 0.065 | [13] -0.039 | [14] -0.034 | [15] -0.015 | [16] 0.013 | [17] 0.003 | [18] 0.001 | [19] 0.041 | [20] 0.037

— the supplement of paper PMC10849652
